## Cleaved PARP after 72 h of treatment

Source: doi:10.1371/journal.pone.0140310, primary screening data, rounded.

First drug in all entries: darinaparsin, 2 µM, C[As](C)SC[C@H](NC(=O)CC[C@H](N)C(=O)O)C(=O)NCC(=O)O

Drug key:
TCS401 (8.33 µM): O=C(O)C(=O)Nc1sc2c(c1C(=O)O)CCNC2
pioglitazone (10 µM): CCc1ccc(CCOc2ccc(CC3SC(=O)NC3=O)cc2)nc1 (stereo unspecified)
PD173074 (0.5 µM): CCN(CC)CCCCNc1ncc2cc(-c3cc(OC)cc(OC)c3)c(NC(=O)NC(C)(C)C)nc2n1
erlotinib (4 µM): C#Cc1cccc(Nc2ncnc3cc(OCCOC)c(OCCOC)cc23)c1
ENMD-2076 (0.2 µM): Cc1cc(Nc2cc(N3CCN(C)CC3)nc(/C=C/c3ccccc3)n2)n[nH]1

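Human melanoma cell lines in 1,536-well plates were treated with a pair of drugs for 72 h, then fixed, stained and imaged. The read-out is the fraction of cleaved-PARP-positive nuclei, in % of that fraction in the DMSO control; 200 means twice the control level of this apoptosis marker. Every drug was used at one fixed concentration, the higher of two screened. These are primary screening values without error estimates. The marker varies much from line to line, for technical or biological reasons.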 This is part of the screen, not chosen by result. An entry leaves out what has no value listed here.

{"partner": "ENMD-2076", "C32": 183, "WM1716": 43.9, "A2058": 189, "IST-MEL1": 57.3, "WM3526": 337, "WM451Lu": 111, "IPC-298": 80.8, "SK-MEL-30": 157, "A101D": 130, "LOX IMVI": 39.7, "UACC-257": 44.5, "COLO 829": 110, "MZ2-MEL": 118, "WM1745": 209, "COLO 792": 210, "A375": 201, "RPMI-7951": 190, "G-361": 121, "MeWo": 276, "SK-MEL-5": 606, "WM3619": 115, "WM115": 63.1, "LB2518-MEL": 137, "MEL-HO": 99.4, "COLO 800": 138, "SK-MEL-28": 104, "RVH-421": 109, "SK-MEL-2": 72.5, "UACC-62": 183}
{"partner": "pioglitazone", "C32": 205, "WM1716": 884, "A2058": 76.0, "IST-MEL1": 68.6, "WM3526": 184, "WM451Lu": 170, "IPC-298": 43.1, "SK-MEL-30": 117, "A101D": 109, "LOX IMVI": 128, "UACC-257": 53.7, "COLO 829": 61.8, "MZ2-MEL": 41.3, "WM1745": 107, "COLO 792": 161, "A375": 166, "RPMI-7951": 97.3, "G-361": 124, "MeWo": 97.4, "SK-MEL-5": 122, "WM3619": 138, "501mel": 196, "WM115": 62.1, "LB2518-MEL": 75.0, "MEL-HO": 96.5, "COLO 800": 147, "SK-MEL-28": 143, "RVH-421": 93.0, "SK-MEL-2": 104, "UACC-62": 139}
{"partner": "PD173074", "C32": 130, "WM1716": 2240, "A2058": 124, "IST-MEL1": 322, "WM3526": 106, "WM451Lu": 120, "IPC-298": 21.0, "SK-MEL-30": 134, "A101D": 111, "LOX IMVI": 215, "UACC-257": 7.8, "COLO 829": 122, "MZ2-MEL": 40.3, "WM1745": 109, "COLO 792": 97.9, "A375": 36.9, "RPMI-7951": 47.9, "G-361": 73.6, "MeWo": 63.5, "SK-MEL-5": 57.6, "WM3619": 118, "501mel": 148, "WM115": 61.4, "LB2518-MEL": 129, "MEL-HO": 184, "COLO 800": 74.1, "SK-MEL-28": 106, "RVH-421": 93.1, "SK-MEL-2": 63.4, "UACC-62": 58.0}
{"partner": "TCS401", "C32": 99.0, "WM1716": 47.5, "A2058": 103, "IST-MEL1": 33.3, "WM3526": 208, "WM451Lu": 182, "IPC-298": 139, "SK-MEL-30": 81.1, "A101D": 48.4, "LOX IMVI": 100, "UACC-257": 27.8, "COLO 829": 179, "MZ2-MEL": 126, "WM1745": 132, "COLO 792": 92.6, "A375": 33.4, "RPMI-7951": 43.1, "G-361": 86.5, "MeWo": 108, "SK-MEL-5": 138, "WM3619": 103, "501mel": 56.3, "WM115": 203, "LB2518-MEL": 84.5, "MEL-HO": 192, "COLO 800": 69.7, "SK-MEL-28": 39.9, "RVH-421": 89.9, "SK-MEL-2": 165, "UACC-62": 79.9}
{"partner": "erlotinib", "C32": 169, "WM1716": 67.2, "A2058": 255, "IST-MEL1": 128, "WM3526": 206, "WM451Lu": 107, "IPC-298": 313, "SK-MEL-30": 91.7, "A101D": 228, "LOX IMVI": 99.0, "UACC-257": 90.3, "COLO 829": 223, "MZ2-MEL": 74.2, "WM1745": 129, "COLO 792": 129, "A375": 156, "RPMI-7951": 92.9, "G-361": 363, "MeWo": 121, "SK-MEL-5": 296, "WM3619": 112, "WM115": 326, "LB2518-MEL": 104, "MEL-HO": 117, "COLO 800": 108, "SK-MEL-28": 42.7, "RVH-421": 171, "SK-MEL-2": 200, "UACC-62": 242}